In one experiment the test system is KG-1 cells. The experiment is described as follows: Toxicity of chemotherapeutic agents, KG-1 cells (PrestoBlue viability). The experiment is classed as cell-based. The conditions noted are these: Homo sapiens, 96 h, 4 days. The method, then: Toxicity of chemotherapeutic agents was tested with high CD33-positive KG-1 cell line (DSMZ-German Collection of Microorganisms and Cell Cultures; Cat. No. ACC 14). KG-1 cells were seeded to non-treated 96-well plate 15000 cells/well and diluted compounds were added to cells in duplicates. Dilution series (1:10) of compounds were prepared starting from 20 μM to 0.2 nM and when added to cells they diluted 2× more. Cell control was untreated cells in culture medium.
Cells with chemotherapeutic agents were cultured for 4 days and then the viability was measured with PrestoBlue cell viability reagent according to the manufacturer's (Life Technologies) instructions. Results were calculated from 5-hour Prestoblue reaction and the percentage of viable cells was calculated by dividing the sample absorbance value with cell control value.

A further experiment deals with HL-60 cells. The experiment is described as follows: Toxicity assay of chemotherapeutic agents, HL-60 cells (PrestoBlue viability). Type of experiment: cell-based. The conditions noted are these: Homo sapiens, 96 h, 4 days incubation. The method, then: HL-60 cells (ATCC®, cat. no. CCL-240™), derived from human promyelocytic leukemia, were cultured in Iscove's Modified Dulbecco's Medium (Gibco, Life Technologies) supplemented with 20% heat inactivated FBS (Gibco, Life Technologies).
For toxicity assay, HL-60 cells were seeded for 7500 cells/well of 96-well plate. The chemotherapeutic agents were added as 2-fold stock solutions and incubated with cells for 5 days.
All other compounds were tested at concentrations 0.1, 1, 10, 100, 1000, and 10 000 nM. […] The percentage of viable cells was calculated by dividing the sample absorbance value with untreated cell control value and multiplying by 100%.
All compounds were tested at concentrations of 0.1-10 000 nM.
IC50 values were determined after average % and standard deviations were transferred to GraphPad Prism 9.1.2. Dose-response curves were generated and the IC50% values of the samples were obtained by non-linear regression analysis (Inhibitor vs. response, variable slope (four parameters)) using the software.

For orientation: IC50 means the concentration that gives 50% inhibition. Read a high IC50 as a need for much substance.

Turning to `CO[C@@H]1[C@H](N(C)C(=O)c2ccccc2)C[C@H]2O[C@]1(C)n1c3ccccc3c3c4c(c5c6ccccc6n2c5c31)C(=O)NC4` [Midostaurin], the IC50 was determined as 517 nM in the experiment on KG-1 cells and 800 nM in the experiment with HL-60 cells.

The record behind these values is patent publication US20260207760A1, “COMBINATIONS OF CD33 ANTIBODY DRUG CONJUGATE WITH CHEMOTHERAPEUTIC AGENTS” (Glykos Biomedical Oy, priority 2022, published 2026).
